According to patent US4551445A (The Medical College of Ohio, priority 1983, dated 1985):
Some peptides are written in HELM: one residue between dots, names in brackets for other building blocks, links after the first $.

Assay: general procedure: Boc solid-phase peptide synthesis; Boc-Gly-resin; p-nitrophenyl ester; N-hydroxybenzotriazole
Details: for cyclisation yield: cyclisation step
[1] = whole synthesis, scale 0.5 mmol

| Substance | cyclisation yield (run 1) | cyclisation yield (run 2) | isolated yield (whole synthesis, based on initial Gly content on the resin, scale 0.5 mmol) | crude mass [1] | isolated mass [1] |
| --- | --- | --- | --- | --- | --- |
| PEPTIDE1{[Pmp].[TyrMe].F.Q.N.C.P.R.G.[am]}$PEPTIDE1,PEPTIDE1,1:R3-6:R3$$$V2.0 | 37.3% | 51.7% |  |  |  |
| β-(S-Benzylmercapto)-β,β-cyclopentamethylenepropionyl-Tyr(Bzl)--Phe--Gln--Asn--Cys(Bzl)--Pro--Arg(Tos)--Gly--NH2 |  |  | 62.4% | 723 mg | 488 mg |
